Measurements: publication PMC8093152, “Biosynthesis of the Tricyclic Aromatic Type II Polyketide Rishirilide: New Potential Third Ring Oxygenation after Three Cyclization Steps” (Molecular Biotechnology, 2021)
Results are given in words; binding and its absence hold for the method and conditions named. Some results given as binding are weak or reduced against the parent protein; the word gives no strength. Tags and fused reporters may be left off the sequences shown.

Target: RslO1 monooxygenase, C-terminal His-tag recombinant protein (Streptomyces bottropensis Gö C4/4) (UniProt W8QPS6)
Test: crystal structure; apo RslO1, sitting drop vapor diffusion at 20 °C, 0.1 M HEPES pH 7.5, 36% polyethylene glycol 600 (seeded); space group P2(1)2(1)2(1); 1.60 Å; both purified

binding: binds
B1: RslO1 monooxygenase, C-terminal His-tag recombinant protein (enzyme, Streptomyces bottropensis Gö C4/4)
chain: MKFGINLFPTVGPAEKSAGQHFEESLRLAELADELGFHHVKTVEHYFHEYGGYSPDPVTFLAAAAARTRRVRLVTGAVLPVFTHPLKLAGKLAMLDNISQGRLDVGFGRAFLPDEFTAFEISMDESRARFDEGVEAVRRLWAEEDVVWEGTFHRFGPVTMLPRTWQRPHPRILVATAKTPASAEAAARAGHGVMLVPSINPREQVQKTLSLYRDAASAAGFKPTEEDIHMSYNCYLAEDGQEARQKGGQASERANRALASAVSAWRETRSADYPGYEKIVEKAGRGDFDRAVAERKALVGTPDEVRAAIDDIRGWFGDFTISLQVISGAMPFEESARTMRLFAEHLLPHYAAND
notes: RslO1, FMN-dependent luciferase-like monooxygenase of the rishirilide (Rsl) gene cluster of Streptomyces bottropensis Gö C4/4; gene amplified from cosmid 4 and cloned between NdeI and XhoI of pET21a(+); predicted mass of the tagged protein 40.04 kDa; also called monooxygenase RslO1; FMN-dependent luciferase-like monooxygenase RslO1; source: E. coli BL21 (DE3) Star, pET21a(+), purified (Ni-NTA …)
